{"sequences": {"note": "By UniProt entry, the sequences of proteins in these tests, tags left out. Residues count along the entry.", "UniProt P29460, residues 23-328": "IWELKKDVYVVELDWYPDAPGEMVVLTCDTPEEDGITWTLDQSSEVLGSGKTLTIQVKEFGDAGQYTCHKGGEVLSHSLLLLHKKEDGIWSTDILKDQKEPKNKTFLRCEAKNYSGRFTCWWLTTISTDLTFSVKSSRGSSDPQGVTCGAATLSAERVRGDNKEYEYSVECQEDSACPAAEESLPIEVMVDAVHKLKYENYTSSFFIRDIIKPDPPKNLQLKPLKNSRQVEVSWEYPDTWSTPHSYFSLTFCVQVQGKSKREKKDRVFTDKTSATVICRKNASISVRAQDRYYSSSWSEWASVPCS"}, "source": "paper PMC12485051", "key": {"[1]": {"target": "T1, BioID2-CLCF1_(ProtC) fusion protein (human) (UniProt Q9UBD9)", "T1 sequence": "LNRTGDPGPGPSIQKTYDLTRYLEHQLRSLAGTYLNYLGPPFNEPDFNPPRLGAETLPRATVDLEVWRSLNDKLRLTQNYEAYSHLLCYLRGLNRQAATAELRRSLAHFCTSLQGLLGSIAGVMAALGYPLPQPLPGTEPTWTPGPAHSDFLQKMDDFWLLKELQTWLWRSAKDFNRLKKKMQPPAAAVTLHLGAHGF", "experiment": "proximity labelling; BioID2 proximity-dependent biotinylation in co-transfected HEK-293T cells, biotin 50 µM for the last 18 h; p40_(FLAG) immunoprecipitated from the supernatant with anti-FLAG affinity gel and probed with streptavidin"}, "[2]": {"target": "A. aeolicus BioID2 biotin ligase mutant tagged with the protein C epitope (BioID2_(ProtC)) (A. aeolicus) (UniProt O66837)", "experiment": "proximity labelling; BioID2 proximity-dependent biotinylation in co-transfected HEK-293T cells, biotin 50 µM for the last 18 h; p40_(FLAG) immunoprecipitated from the supernatant with anti-FLAG affinity gel and probed with streptavidin"}}, "note": "No constants are given. Whether binding was seen depends on the method and setting. Binding seen in cells or lysates may run through a third protein. Here binding means that the protein was enriched with, or labelled near, the bait; the list need not be complete. For some assays here: A no says only that the protein was not detected with the bait. For some assays here: Sequences can lack the tags named with a protein.", "data": [{"substance": "human p40 tagged with the FLAG epitope (p40_(FLAG)) (from UniProt P29460 23-328)", "values": [{"measurement": "binding", "setting": "[1]", "value": "binds"}, {"measurement": "binding", "setting": "[2]", "value": "no binding"}]}]}
